# Reference: publication PMC5996148
# Values joined by “and” are separate entries in the source; they are usually repeats but may differ in a detail not shown here. Equal values may be shown once. The list shows a part of the results. For some of these results: The exact form of the protein is not confirmed.
# Columns and labels:
# Assay in all cases: protein microarray (ProtoArray v5.0), streptavidin-Alexa Fluor 647
# Conditions in all cases: 3'-biotin; 20 mM Tris (pH 7.5), 5 mM MgCl2, 100 mM KCl, 0.1% Tween-20, A/T-rich and random oligonucleotide blockers; temperature not stated; high values mean tight binding
# CCDC5 (human) = system: CCDC5 (human)
# CCDC82 (human) = system: CCDC82 (human)
# CCDC83 (human) = system: CCDC83 (human)
# CCL3 (human) = system: CCL3 (human)
# CCL3L3 (human) = system: CCL3L3 (human)
# CCNF = biological target: T1, CCNF (UniProt P41002)
# T1 sequence: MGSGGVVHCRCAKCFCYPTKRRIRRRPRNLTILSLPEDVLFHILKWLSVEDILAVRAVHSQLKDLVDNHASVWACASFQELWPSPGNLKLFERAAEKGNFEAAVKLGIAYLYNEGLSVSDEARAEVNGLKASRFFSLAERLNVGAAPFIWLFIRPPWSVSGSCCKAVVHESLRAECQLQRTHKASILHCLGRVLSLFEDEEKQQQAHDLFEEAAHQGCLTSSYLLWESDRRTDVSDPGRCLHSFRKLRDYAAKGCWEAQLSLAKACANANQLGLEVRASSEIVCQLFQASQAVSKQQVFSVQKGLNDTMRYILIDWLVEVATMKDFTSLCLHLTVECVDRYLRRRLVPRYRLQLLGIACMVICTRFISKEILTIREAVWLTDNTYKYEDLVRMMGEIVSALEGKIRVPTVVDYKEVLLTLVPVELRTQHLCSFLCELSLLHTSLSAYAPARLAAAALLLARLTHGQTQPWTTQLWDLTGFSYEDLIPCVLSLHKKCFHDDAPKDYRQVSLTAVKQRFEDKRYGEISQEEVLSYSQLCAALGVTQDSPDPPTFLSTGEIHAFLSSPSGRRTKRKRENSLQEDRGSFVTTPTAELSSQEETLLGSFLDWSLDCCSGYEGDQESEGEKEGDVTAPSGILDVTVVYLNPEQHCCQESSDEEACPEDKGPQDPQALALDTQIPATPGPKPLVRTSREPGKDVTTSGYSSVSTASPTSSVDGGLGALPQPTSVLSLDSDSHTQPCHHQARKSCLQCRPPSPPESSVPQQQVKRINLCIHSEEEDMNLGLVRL
# CCNH (human) = system: CCNH (human)
# CCT2 (human) = system: CCT2 (human)
# CCT8 (human) = system: CCT8 (human)
# CD209 = biological target: T2, CD209 (UniProt Q9NNX6)
# T2 sequence: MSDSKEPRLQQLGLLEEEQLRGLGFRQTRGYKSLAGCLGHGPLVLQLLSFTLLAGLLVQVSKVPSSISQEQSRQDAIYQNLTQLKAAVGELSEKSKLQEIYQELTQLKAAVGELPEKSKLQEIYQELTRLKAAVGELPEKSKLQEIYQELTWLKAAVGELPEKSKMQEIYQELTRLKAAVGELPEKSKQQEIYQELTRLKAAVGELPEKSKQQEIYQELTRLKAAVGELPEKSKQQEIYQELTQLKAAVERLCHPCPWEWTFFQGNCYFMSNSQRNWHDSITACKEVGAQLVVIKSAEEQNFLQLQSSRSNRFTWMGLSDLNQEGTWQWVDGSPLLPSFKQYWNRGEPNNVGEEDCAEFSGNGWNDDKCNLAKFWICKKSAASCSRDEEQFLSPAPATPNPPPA
sequence,measurement,setting,value
GGTGACAGGGGTATGGGGAGGGG [G4-2 biotinylated (Ct1)],binding signal,CCDC5 (human),-0.378 z-score
same,binding signal,CCDC82 (human),-0.388 z-score
same,binding signal,CCDC83 (human),-0.369 z-score
same,binding signal,CCL3 (human),-0.375 z-score
same,binding signal,CCL3L3 (human),-0.371 z-score
same,binding signal,CCNF,-0.379 z-score
same,binding signal,CCNH (human),-0.389 z-score
same,binding signal,CCT2 (human),-0.373 z-score
same,binding signal,CCT8 (human),-0.394 z-score and -0.392 z-score
same,binding signal,CD209,-0.378 z-score

# Reformatted tab-delimited: part of the list above
sequence	measurement	setting	value
GGTGACAGGGGTATGGGGAGGGG [G4-2 biotinylated (Ct1)]	binding signal	CCL3 (human)	-0.375 z-score
same	binding signal	CD209	-0.378 z-score
